This is one part of the list.
How the values were obtained:
Assay in all cases: glycan array binding signal (z-score within array); higher = stronger binding
Conditions in all cases: glycan notation: IUPAC condensed, linker removed
[1] = target: Neu5Ac(a2-3)Gal
In short: (§1)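 Glycan array binding is given as a within-array Z-score, which can be read as non-binding when negative. The arrays, 3228 of them, came from the Consortium for Functional Glycomics database and were retained only where the protein sequence was available. Z-scores were averaged across arrays of the same protein sequence at different concentrations or buffers and across linkers.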

[2] = target: Neu5Ac(a2-3)Gal(b1-3)GalNAc
In short: as §1

[3] = target: Neu5Ac(a2-3)Gal(b1-3)GalNAc(b1-3)Gal(a1-4)Gal(b1-4)Glc
In short: as §1

[4] = target: Neu5Ac(a2-3)Gal(b1-3)GalNAc(b1-4)Gal(b1-4)Glc
In short: as §1

[5] = target: Neu5Ac(a2-3)Gal(b1-3)GalNAc(b1-4)[Neu5Ac(a2-3)]Gal(b1-4)Glc
In short: as §1

[6] = target: Neu5Ac(a2-3)Gal(b1-3)GalNAc(b1-4)[Neu5Ac(a2-8)Neu5Ac(a2-3)]Gal(b1-4)Glc
In short: as §1

[7] = target: Neu5Ac(a2-3)Gal(b1-3)GalNAc6S
In short: as §1

[8] = target: Neu5Ac(a2-3)Gal(b1-3)GlcNAc
In short: as §1

[9] = target: Neu5Ac(a2-3)Gal(b1-3)GlcNAc(b1-2)Man
In short: as §1

[10] = target: Neu5Ac(a2-3)Gal(b1-3)GlcNAc(b1-2)Man(a1-3)[GlcNAc(b1-4)][Neu5Ac(a2-3)Gal(b1-3)GlcNAc(b1-2)Man(a1-6)]Man(b1-4)GlcNAc(b1-4)GlcNAc
In short: as §1

[11] = target: Neu5Ac(a2-3)Gal(b1-3)GlcNAc(b1-2)Man(a1-3)[Neu5Ac(a2-3)Gal(b1-3)GlcNAc(b1-2)Man(a1-6)]Man(b1-4)GlcNAc(b1-4)GlcNAc
In short: as §1

[12] = target: Neu5Ac(a2-3)Gal(b1-3)GlcNAc(b1-2)[Neu5Ac(a2-3)Gal(b1-3)GlcNAc(b1-4)]Man(a1-6)[Neu5Ac(a2-3)Gal(b1-3)GlcNAc(b1-2)Man(a1-3)]Man(b1-4)GlcNAc(b1-4)GlcNAc
In short: as §1

[13] = target: Neu5Ac(a2-3)Gal(b1-3)GlcNAc(b1-3)Gal(b1-3)GlcNAc
In short: as §1

[14] = target: Neu5Ac(a2-3)Gal(b1-3)GlcNAc(b1-3)Gal(b1-4)GlcNAc
In short: as §1

[15] = target: Neu5Ac(a2-3)Gal(b1-3)GlcNAc(b1-3)GalNAc
In short: as §1

[16] = target: Neu5Ac(a2-3)Gal(b1-3)GlcNAc(b1-6)GalNAc
In short: as §1

[17] = target: Neu5Ac(a2-3)Gal(b1-3)GlcNAc6S
In short: as §1

[18] = target: Neu5Ac(a2-3)Gal(b1-3)[Fuc(a1-4)]GlcNAc
In short: as §1

[19] = target: Neu5Ac(a2-3)Gal(b1-3)[Fuc(a1-4)]GlcNAc(b1-3)Gal(b1-3)[Fuc(a1-4)]GlcNAc
In short: as §1

[20] = target: Neu5Ac(a2-3)Gal(b1-3)[Fuc(a1-4)]GlcNAc(b1-3)Gal(b1-4)[Fuc(a1-3)]GlcNAc
In short: as §1

[21] = target: Neu5Ac(a2-3)Gal(b1-3)[GlcNAc(b1-6)]GalNAc
In short: as §1

[22] = target: Neu5Ac(a2-3)Gal(b1-3)[Neu5Ac(a2-6)]GalNAc
In short: as §1

[23] = target: Neu5Ac(a2-3)Gal(b1-3)[Neu5Ac(a2-6)]GlcNAc(b1-3)[Fuc(a1-3)[Gal(b1-4)]GlcNAc(b1-6)]Gal(b1-4)Glc
In short: as §1

[24] = target: Neu5Ac(a2-3)Gal(b1-3)]Neu5Ac(a2-3)Gal(b1-4)]GlcNAc
In short: as §1

[25] = target: Neu5Ac(a2-3)Gal(b1-4)Glc
In short: as §1

[26] = target: Neu5Ac(a2-3)Gal(b1-4)GlcNAc
In short: as §1

[27] = target: Neu5Ac(a2-3)Gal(b1-4)GlcNAc(b1-2)Man
In short: as §1

[28] = target: Neu5Ac(a2-3)Gal(b1-4)GlcNAc(b1-2)Man(a1-3)[GlcNAc(b1-4)][Neu5Ac(a2-3)Gal(b1-4)GlcNAc(b1-2)Man(a1-6)]Man(b1-4)GlcNAc(b1-4)GlcNAc
In short: as §1

[29] = target: Neu5Ac(a2-3)Gal(b1-4)GlcNAc(b1-2)Man(a1-3)[Neu5Ac(a2-3)Gal(b1-4)GlcNAc(b1-2)Man(a1-6)]Man(b1-4)GlcNAc(b1-4)GlcNAc
In short: as §1

[30] = target: Neu5Ac(a2-3)Gal(b1-4)GlcNAc(b1-2)Man(a1-3)[Neu5Ac(a2-3)Gal(b1-4)GlcNAc(b1-2)Man(a1-6)]Man(b1-4)GlcNAc(b1-4)[Fuc(a1-6)]GlcNAc
In short: as §1

[31] = target: Neu5Ac(a2-3)Gal(b1-4)GlcNAc(b1-2)Man(a1-3)[Neu5Ac(a2-6)Gal(b1-4)GlcNAc(b1-2)Man(a1-6)]Man(b1-4)GlcNAc(b1-4)GlcNAc
In short: as §1

[32] = target: Neu5Ac(a2-3)Gal(b1-4)GlcNAc(b1-2)[Neu5Ac(a2-3)Gal(b1-4)GlcNAc(b1-4)]Man(a1-3)[GlcNAc(b1-4)][Neu5Ac(a2-3)Gal(b1-4)GlcNAc(b1-2)[Neu5Ac(a2-3)Gal(b1-4)GlcNAc(b1-6)]Man(a1-6)]Man(b1-4)GlcNAc(b1-4)GlcNAc
In short: as §1

[33] = target: Neu5Ac(a2-3)Gal(b1-4)GlcNAc(b1-2)[Neu5Ac(a2-3)Gal(b1-4)GlcNAc(b1-4)]Man(a1-3)[GlcNAc(b1-4)][Neu5Ac(a2-3)Gal(b1-4)GlcNAc(b1-4)Man(a1-6)]Man(b1-4)GlcNAc(b1-4)GlcNAc
In short: as §1

[34] = target: Neu5Ac(a2-3)Gal(b1-4)GlcNAc(b1-2)[Neu5Ac(a2-3)Gal(b1-4)GlcNAc(b1-6)]Man(a1-6)[Neu5Ac(a2-3)Gal(b1-4)GlcNAc(b1-2)Man(a1-3)][GlcNAc(b1-4)]Man(b1-4)GlcNAc(b1-4)GlcNAc
In short: as §1

[35] = target: Neu5Ac(a2-3)Gal(b1-4)GlcNAc(b1-3)Gal
In short: as §1

[36] = target: Neu5Ac(a2-3)Gal(b1-4)GlcNAc(b1-3)Gal(b1-3)GlcNAc
In short: as §1

[37] = target: Neu5Ac(a2-3)Gal(b1-4)GlcNAc(b1-3)Gal(b1-4)GlcNAc
In short: as §1

[38] = target: Neu5Ac(a2-3)Gal(b1-4)GlcNAc(b1-3)Gal(b1-4)GlcNAc(b1-2)Man(a1-3)[Neu5Ac(a2-3)Gal(b1-4)GlcNAc(b1-3)Gal(b1-4)GlcNAc(b1-2)Man(a1-6)]Man(b1-4)GlcNAc(b1-4)GlcNAc
In short: as §1

[39] = target: Neu5Ac(a2-3)Gal(b1-4)GlcNAc(b1-3)Gal(b1-4)GlcNAc(b1-3)Gal(b1-4)GlcNAc
In short: as §1

[40] = target: Neu5Ac(a2-3)Gal(b1-4)GlcNAc(b1-3)Gal(b1-4)GlcNAc(b1-3)Gal(b1-4)GlcNAc(b1-2)Man(a1-3)[Neu5Ac(a2-3)Gal(b1-4)GlcNAc(b1-3)Gal(b1-4)GlcNAc(b1-3)Gal(b1-4)GlcNAc(b1-2)Man(a1-6)]GalNAc
In short: as §1

[41] = target: Neu5Ac(a2-3)Gal(b1-4)GlcNAc(b1-3)Gal(b1-4)GlcNAc(b1-3)GalNAc
In short: as §1

[42] = target: Neu5Ac(a2-3)Gal(b1-4)GlcNAc(b1-3)Gal(b1-4)GlcNAc(b1-3)[Neu5Ac(a2-3)Gal(b1-4)GlcNAc(b1-3)Gal(b1-4)GlcNAc(b1-6)]GalNAc
In short: as §1

[43] = target: Neu5Ac(a2-3)Gal(b1-4)GlcNAc(b1-3)Gal(b1-4)GlcNAc(b1-6)[Gal(b1-3)]GalNAc
In short: as §1

[44] = target: Neu5Ac(a2-3)Gal(b1-4)GlcNAc(b1-3)Gal(b1-4)[Fuc(a1-3)]GlcNAc
In short: as §1

[45] = target: Neu5Ac(a2-3)Gal(b1-4)GlcNAc(b1-3)GalNAc
In short: as §1

B1: XTP3-B-MRH2 (Homo sapiens), Q96DZ1 (protein)
chain: EFLSGSYCFRGGVGWWKYEFCYGKHVHQYHEDKDSGKTSVVVGTWNQEEHIEWAKKNTARAYHLQDDGTQTVRMVSHFYGNGDICDITDKPRQVTVKLKCKESDSPHAVTVYMLEPHSCQYILGVESPVICKILDTA
glycan array binding signal (z-score) [1]: -0.349 | glycan array binding signal (z-score) [2]: 0.553 | glycan array binding signal (z-score) [3]: 0.229 | glycan array binding signal (z-score) [4]: -0.15 | glycan array binding signal (z-score) [5]: -0.211 | glycan array binding signal (z-score) [6]: -0.195 | glycan array binding signal (z-score) [7]: -0.933 | glycan array binding signal (z-score) [8]: -0.922 | glycan array binding signal (z-score) [9]: -0.328 | glycan array binding signal (z-score) [10]: -0.001 | glycan array binding signal (z-score) [11]: 1.01 | glycan array binding signal (z-score) [12]: 0.771 | glycan array binding signal (z-score) [13]: -1.1 | glycan array binding signal (z-score) [14]: -0.591 | glycan array binding signal (z-score) [15]: -1.17 | glycan array binding signal (z-score) [16]: 1.44 | glycan array binding signal (z-score) [17]: 1.04 | glycan array binding signal (z-score) [18]: -0.125 | glycan array binding signal (z-score) [19]: -0.226 | glycan array binding signal (z-score) [20]: 2.02 | glycan array binding signal (z-score) [21]: -1.04 | glycan array binding signal (z-score) [22]: -0.177 | glycan array binding signal (z-score) [23]: -0.373 | glycan array binding signal (z-score) [24]: -0.154 | glycan array binding signal (z-score) [25]: 1.35 | glycan array binding signal (z-score) [26]: -0.101 | glycan array binding signal (z-score) [27]: -0.332 | glycan array binding signal (z-score) [28]: -0.074 | glycan array binding signal (z-score) [29]: -1.63 | glycan array binding signal (z-score) [30]: 0.635 | glycan array binding signal (z-score) [31]: -0.307 | glycan array binding signal (z-score) [32]: -1.25 | glycan array binding signal (z-score) [33]: -0.347 | glycan array binding signal (z-score) [34]: -1.02 | glycan array binding signal (z-score) [35]: -1.44 | glycan array binding signal (z-score) [36]: -0.02 | glycan array binding signal (z-score) [37]: 1.22 | glycan array binding signal (z-score) [38]: -0.486 | glycan array binding signal (z-score) [39]: 0.505 | glycan array binding signal (z-score) [40]: 0.813 | glycan array binding signal (z-score) [41]: -0.914 | glycan array binding signal (z-score) [42]: 1.25 | glycan array binding signal (z-score) [43]: -0.695 | glycan array binding signal (z-score) [44]: -0.481 | glycan array binding signal (z-score) [45]: -0.754

— the supplement of paper PMC8728848
